According to patent US9925263B2, “Liquid pharmaceutical formulations for injection comprising procaine and uses thereof” (EAGLE BIOLOGICS, INC., priority 2013, dated 2018):
For at least one compound, name, drawing or mass did not settle the structure.

Assays:
[1] = test system: biosimilar ERBITUX®; test: Viscosity of aqueous solutions of biosimilar ERBITUX® with viscosity-lowering agents; conditions: 25° C.
[2] = test system: biosimilar AVASTIN®; test: Viscosity of aqueous solutions of biosimilar AVASTIN® with viscosity-lowering agents; format: physicochemical; conditions: 25° C.
Protocol: (§1) (unless otherwise indicated).
The protein was formulated to contain either 0.25 M phosphate buffer or 0.25 M CSAL.
Subsequently, the appropriate amount of viscosity-lowering agent was added to result in a final viscosity-lowering agent concentration of 0.15-0.35 M upon reconstitution.
The viscosity-lowering agent(s) were added in an amount sufficient to give concentration upon reconstitution as specified below. In cases of combinations of agents, the concentration of each component is 0.15 M. The protein solutions were then freeze-dried.

[3] = test system: biosimilar RITUXAN®; test: Viscosity of aqueous solutions of biosimilar RITUXAN® with viscosity-lowering agents; conditions: 25° C.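 Further: absolute viscosity of aqueous antibody solutions determined by microfluidic viscometry (mVROC chip, 50 micron channel) at several flow rates after 5 min equilibration, mean of at least three readings.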
[4] = test system: REMICADE®; test: Viscosity of aqueous solutions of […]® with viscosity-lowering agents; format: physicochemical; conditions: 144 mg/mL REMICADE; […] agent; 25° C.
Protocol: as §1
An extrapolated zero-shear viscosity was determined from a plot of absolute viscosity versus shear rate.
Following reconstitution, the viscosity of each solution was measured using the microfluidic viscometer as described in previous examples. The solutions were then back-loaded into 1 mL BD insulin syringes with 27, 29, or 31 gauge fixed needles. The force required to extrude the concentrated […]® solutions was then measured using an Instron at a rate of displacement equivalent to a fluid flow rate of 3 mL/min. The expelled solution was collected from the syringe and analyzed by size-exclusion chromatography.

[5] = test system: TYSABRI®; test: Viscosity of aqueous solutions of TYSABRI® with viscosity-lowering agents; format: physicochemical; conditions: 219 mg/mL TYSABRI; 0.30M agent; 25° C.
[6] = test system: HERCEPTIN®; test: Viscosity of aqueous solutions of HERCEPTIN® with viscosity-lowering agents; format: physicochemical; conditions: 222 mg/mL HERCEPTIN; 0.3M agent; 25° C.

SMILES	Viscosity ([1]; 209 mg/mL mAb, […] agent) [cP]	Viscosity ([2]; 200 mg/mL mAb, agent […]) [cP]	Viscosity ([3]; 203 mg/mL mAb, […] agent) [cP]	Viscosity [4] [cP]	Viscosity [5] [cP]	Viscosity [6] [cP]	Viscosity ([1]; 240 mg/mL mAb, 0.30M agent) [cP]	Viscosity ([2]; 192 mg/mL mAb, agent 0.3M) [cP]	Viscosity ([2]; 194 mg/mL mAb, agent […]) [cP]	Viscosity ([2]; 218 mg/mL mAb, agent […]) [cP]	Viscosity ([2]; 232 mg/mL mAb, agent […]) [cP]	Viscosity ([2]; 243 mg/mL mAb, agent 0.6M) [cP]	Viscosity ([3]; 197 mg/mL mAb, 0.6M agent) [cP]
CCC[C@@H]1C[C@@H](C(=O)N[C@@H]([C@H]2O[C@H](SC)[C@H](OP(=O)(O)O)[C@@H](O)[C@H]2O)[C@H](C)Cl)N(C)C1 [Clindamycin Phosphate, reference compound]	36.5 ± 0.0	164 ± 17	199 ± 8	–	–	–	–	–	–	–	–	–	–
CN1CC(=O)NC1=N [Creatinine]	–	–	71.8 ± 0.8	37.1 ± 0.5	40.8 ± 1.8	45.7 ± 0.3	131 ± 4	24.5 ± 0.7	36.1 ± 0.2	53.4 ± 1.0	72.7 ± 0.8	50.8 ± 0.5	28.4 ± 0.2
